Data taken from US5266599A, “Use of (+)-1-[(3,4,5-trimethoxy)-benzyloxymethyl]-1-phenyl-N,N-dimethyl-n-propy lamine to increase gastric discharge in a subject” (priority 1989, dated 1993).

Tested on: duodenum of the rat
Type: cell-based

Question: With `CN1CC[C@]23c4c5ccc(O)c4O[C@H]2[C@@H](O)C=C[C@H]3[C@H]1C5` [Morphine] as the molecule, how does the “IC50, inhibition of 50% of the amplitude of contractions” value read?
Answer: Inactive at 10^-4
